These results are taken from doi:10.1101/2020.01.21.913079.

Amino acid sequences for entries named in this document (tags omitted).
UniProt O18640: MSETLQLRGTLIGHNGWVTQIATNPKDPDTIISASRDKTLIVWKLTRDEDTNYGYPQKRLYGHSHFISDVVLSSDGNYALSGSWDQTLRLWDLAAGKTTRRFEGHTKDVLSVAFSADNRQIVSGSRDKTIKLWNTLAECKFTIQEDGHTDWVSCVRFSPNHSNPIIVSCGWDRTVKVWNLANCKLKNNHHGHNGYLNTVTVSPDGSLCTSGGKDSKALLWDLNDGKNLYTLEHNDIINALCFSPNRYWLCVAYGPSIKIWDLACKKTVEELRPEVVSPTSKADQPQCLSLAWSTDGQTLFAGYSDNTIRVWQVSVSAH

Assay [1] addresses T1, Rasputin (RIN), Drosophila G3BP (Drosophila (endogenous in embryos)) (UniProt Q9VFT4).
T1 sequence: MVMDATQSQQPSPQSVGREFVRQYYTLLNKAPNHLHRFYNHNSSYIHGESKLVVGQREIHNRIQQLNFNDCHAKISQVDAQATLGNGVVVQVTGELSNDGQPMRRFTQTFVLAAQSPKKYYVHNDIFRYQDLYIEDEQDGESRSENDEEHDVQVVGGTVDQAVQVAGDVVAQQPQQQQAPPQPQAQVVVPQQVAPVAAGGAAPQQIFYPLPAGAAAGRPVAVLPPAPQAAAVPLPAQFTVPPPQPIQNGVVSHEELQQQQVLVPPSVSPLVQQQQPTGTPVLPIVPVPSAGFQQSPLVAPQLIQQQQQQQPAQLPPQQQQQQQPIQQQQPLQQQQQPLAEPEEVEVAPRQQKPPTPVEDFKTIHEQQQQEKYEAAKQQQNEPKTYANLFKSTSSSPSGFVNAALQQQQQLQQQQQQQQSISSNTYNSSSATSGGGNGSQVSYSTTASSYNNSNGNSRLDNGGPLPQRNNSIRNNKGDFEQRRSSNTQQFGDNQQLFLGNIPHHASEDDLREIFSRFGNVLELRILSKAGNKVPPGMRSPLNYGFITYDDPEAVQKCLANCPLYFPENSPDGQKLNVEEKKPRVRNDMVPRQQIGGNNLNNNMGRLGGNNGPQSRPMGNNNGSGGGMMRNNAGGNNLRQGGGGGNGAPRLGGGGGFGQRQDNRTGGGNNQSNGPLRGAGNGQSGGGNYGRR
In words: affinity purification with mass spectrometry.

Assay [2] has as its target T1, Rasputin (RIN), Drosophila G3BP (Drosophila (endogenous in embryos)). As to the kind of experiment: affinity purification with mass spectrometry. The source holds these as a separate data set.

Read-outs that look alike come from different tables or passages of the source. No constants are given. Whether binding was seen depends on the method and setting. Binding seen in cells or lysates may run through a third protein. A yes stands for co-enrichment or nearness to the bait. Other partners may have been found. A no says only that the protein was not detected with the bait.

Take “Twenty-four (Drosophila (endogenous in embryos))”: the binding entry in assay [1] is recorded as “binds”.
Turning to “Drosophila RACK1 (from UniProt O18640 1-318)”, the binding result in assay [2] and in assay [1] was “no binding” throughout.
For “HSC70Cb (Drosophila (endogenous in embryos))”, the binding result in assay [1] is recorded as “binds”.

B1: Caprin (protein, UniProt Q9I7D3 1-961)
chain: MPSAANTATVTAAIATTVAASASNTNNNSVSKEKRSSIISLGGSVIPGTAVAAGAGVATTNGQSNSSAAATADGSQTDLASSNNNGNAAKSKANAVSAAAVVPEPYNPLKQLLVTIEHKIRNLEKRKTKLESYRAIQSSGKELSGDQASAVAKYDAVLANLEFARELAKHIQQQSKEAEKEQKKQARKDNLAKTIAETAKIREVLIIQNVLNCFNDDQVRSDFLNGENGAKKLENTELELLEKFFIETQTRRPETADDVSFIATAQKSAELFYSTINARPKSFGEVSFEKLRSLFQQIQDSGYLDKYYLVPLAENAVANSTDSGTGSGDGESGDLLNDGSGELDAELPSEPSARNSLEEGLDKLHLGVQAELDQHQSYQQQQERPSHLLEPQHQRAPSLEHQQNSMVQQVSTQVYQAAPQAGGTTTPVHVLYAPAPPAQQQPQQPPPHPHQLLSSPVNLQALQTGTAAPPAQQQQPHPTHFAPNVRAVEQNYFKQPPQHPQGPGIQAPQTPQQQQFMQHSRPLAEVLGTGRFHFLQDSELDNPEALAPPPPTNQGLVFEQQPQQPNHVEEPTQAILTLTFTNQSFPSQQPQPQQQGPQQQQQLFSPVLIHEQRQQPPQQQPQPMLIMPRLPTQQPQQPAPQGIGMQAGDVTSGFSYENAVVSYEQQIQQQLKQQQQQQQQQQQNLQQLDEPSSVNSSSSVGAGGDVENNEWHARNNDTNAAATAALTNVLKGETTQATPPAPPTKWSSEMNAMSSAASNGSSNTSHKQEWATPRDHSTGGGNSGYADNNESNNHWNNSQGDGRRNSGNYQRRGGDRDNRDRDQGGRGDERRNGGDRGNYRSRQYGNSSNTNGRNSGNSSGVYFRNNESGNGGGNNYYQNGGGGGGTYNKESRYESSGGGGGSYRGQRGGNQQRNVNGSYGGGRPMGDRGRGGAGNQGGGGGGYINRQNQSQRMPLGLENKN
Consider B1, for which the binding entry in assay [1] is recorded as “binds”.
